Construct, isoform or probe ends are uncertain for at least one entry. At least one verdict rests on a figure or table, not on a statement of the authors.
Target: hERαCDE WT (Homo sapiens) (UniProt P03372)
Test: SEC / SEC-SAXS
Settings: E2, TIF2 peptide, buffer B pH 9.5, SASBDB SASDDU8; recombinant protein; residues 181-552; protein details: His-tag (pMCSG7), removed by TEV

Sequences of proteins named here, by UniProt entry; tags and fusion partners are left off. Residues count along the entry.
UniProt P03372, 181-552: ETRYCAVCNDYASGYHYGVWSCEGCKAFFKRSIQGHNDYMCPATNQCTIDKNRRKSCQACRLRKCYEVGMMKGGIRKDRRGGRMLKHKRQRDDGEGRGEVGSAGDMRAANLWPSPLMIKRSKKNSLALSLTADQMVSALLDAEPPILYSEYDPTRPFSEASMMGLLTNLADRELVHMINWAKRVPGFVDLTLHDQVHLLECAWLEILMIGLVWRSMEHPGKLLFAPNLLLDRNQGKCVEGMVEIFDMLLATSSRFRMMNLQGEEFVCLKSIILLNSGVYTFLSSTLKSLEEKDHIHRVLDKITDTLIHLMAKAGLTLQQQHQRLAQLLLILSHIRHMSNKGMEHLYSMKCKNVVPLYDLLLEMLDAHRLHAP

**Q.** Does “TAGGTACACGTGACCTGCG / CGCAGGTCACTGTGACCTA [ERE-DNA (hERαcomplex, as printed)]” bind?
**A.** binds

— PMC6117352
